Experimental data as given in PubChem BioAssay AID504444 (National Center for Advancing Translational Sciences (NCATS), 2011).
The campaign covered roughly 360,000 compounds. About 7,500 (2.1%) were called active. The shares of active, inactive and inconclusive entries below differ from those in the screen. Calls come from the whole dose curve; as a rule, active = well fitted inhibition curve with a large enough effect; inconclusive = small, poorly fitted or top-dose-only effect, or effect the other way; inactive = flat fitted curve, though single readings scatter. A potency beside an inconclusive call is a rough fit, not a confirmed value.

Test: Nrf2 qHTS screen for inhibitors; note: nearly all actives have a fitted effect of over 60% in size
Conditions: A549 ARE-Fluc reporter, luciferase luminescence, 18-24 h; activity change, negative = inhibition: at 46 µM (top of the series)
How it was run: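 A549 ARE_Fluc cells, 5000/well, 5% FBS OPTI-MEM; compounds in dose-response, 18-24 h at 37 °C/5% CO2; CellTiter-Fluor viability read (Ex 405/Em 525), then BugLite luciferase luminescence = Nrf2 activity.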
% is set by controls: 0 for no effect and ±100 for the full control effect; potency is the fitted concentration of half-maximal effect.

SMILES | Potency | activity change, negative = inhibition
CC(C)(C)n1cnc2cc(NCc3cccs3)ccc21 | inconclusive: 20.6 µM [activator, single point] | –
O=C(Nc1ncc(Cc2ccccc2)s1)C1CCN(C(=O)c2ccco2)CC1 | active: 20.6 µM | –
CCCS(=O)(=O)N1CCC(C(=O)NC2CCC(C)CC2)CC1 (stereo not drawn) | inconclusive: 10.3 µM [activator, partial curve, poor fit] | –
Cc1ccc2nc(NCc3ccccc3)c3nnnn3c2c1 | inconclusive: 20.6 µM [activator, single point] | –
COc1ccc2[nH]c3c(N4CCN(Cc5ccc6c(c5)OCO6)CC4)ncnc3c2c1 | inconclusive: 13 µM [falling, partial curve] | –
Clc1ccc(-c2csc(Nc3cccnc3)n2)cc1 | inconclusive: 7.31 µM [activator, partial curve] | –
Cc1cc(Cl)cc(C)c1OCCn1ccnc1 | inconclusive: 3.66 µM [activator, single point] | –
COc1ccc(Cl)cc1NC(=O)c1cc(C)no1 | – | inactive: 6.79%
CC[n+]1ccc(/C=C/c2ccc(N(C)C)cc2)c2ccccc21 | active: 3.66 µM | –
COCCNc1nnc(SCC(=O)N2CCN(S(=O)(=O)c3ccccc3)CC2)s1 | inconclusive: 0.231 µM [falling, full curve] | –
Cc1ccc(NC(=S)NNC(=O)Nc2ccccc2)cc1 | inconclusive: 29.1 µM [activator, single point] | –
O=C(Nc1ccccc1N1CCOCC1)C1=NN(c2ccccc2)C(=O)CC1 | inconclusive: 25.9 µM [falling, single point] | –
COc1nn(CC(=O)N2N=C(C(F)F)CC2(O)C(F)F)cc1[N+](=O)[O-] (stereo not drawn) | – | inactive: -1.49%
COc1ccc(-c2nc3ccccc3s2)cc1O | inconclusive: 29.1 µM [activator, single point] | –
O=C1c2ccccc2C(Nc2ccc3c(c2)OCCO3)N1Cc1ccc2c(c1)OCO2 (stereo not drawn) | inconclusive: 0.411 µM [activator, full curve] | –
COc1ccc(Nc2nc(-c3cccc(Cl)c3)c3c(n2)-c2ccccc2OC3)cc1 | inconclusive: 5.8 µM [activator, full curve, poor fit] | –
Cc1ccc(NS(=O)(=O)c2ccc(-c3cnc(C4CC4)o3)cc2)c(C)c1 | – | inactive: 0.121%
COc1cc(C(=O)N2CCN(S(=O)(=O)c3ccc(C)cc3C)CC2)ccc1OCC(=O)N1CCOCC1 | – | inactive: 1.04%
O=c1cc(CO)oc(CN2CCN(Cc3ccccc3)CC2)c1O | inconclusive: 2.06 µM [falling, partial curve, poor fit] | –
O=C(OCc1ccccc1)N1CCOCCN(C(=O)OCc2ccccc2)CCOCC1 | inconclusive: 10.3 µM [falling, partial curve, poor fit] | –
CCC(=O)Nc1cccc(NC(=O)CSc2nnnn2C)c1 | inconclusive: 20.6 µM [activator, partial curve, poor fit] | –
NC(=O)CC(NC(=O)c1ccc(Br)cc1)c1ccc(NCCc2ccc(F)cc2)c([N+](=O)[O-])c1 (stereo not drawn) | inconclusive: 29.1 µM [falling, single point] | –

An excerpt from above in order of SMILES length, low to high.
SMILES | Potency | activity change, negative = inhibition
COc1ccc(-c2nc3ccccc3s2)cc1O | inconclusive: 29.1 µM [activator, single point] | –
Cc1ccc2nc(NCc3ccccc3)c3nnnn3c2c1 | inconclusive: 20.6 µM [activator, single point] | –
COc1ccc2[nH]c3c(N4CCN(Cc5ccc6c(c5)OCO6)CC4)ncnc3c2c1 | inconclusive: 13 µM [falling, partial curve] | –

Next records:

SMILES | Potency | activity change, negative = inhibition
O=C1OC(c2ccccc2)(c2cc(Br)ccc2O)c2ccccc21 (stereo not drawn) | inconclusive: 29.1 µM [falling, single point] | –
COc1ccc(-c2cc(C(F)(F)F)c3c(N)c(C(=O)NCCSC)sc3n2)cc1 | inconclusive: 29.1 µM [falling, partial curve, poor fit] | –
COCCCN1C(=O)c2ccc(C(=O)OCC(=O)N(C)c3ccccc3)cc2C1=O | inconclusive: 8.2 µM [activator, partial curve, poor fit] | –
Cc1ccccc1CN(c1ccc(C(=O)NCc2cccnc2)cc1)S(C)(=O)=O | inconclusive: 2.31 µM [falling, partial curve, poor fit] | –
Cc1ccc(SCCN2CCN(C)CC2)cc1 | – | inactive: 11.1%
COc1ccc(S(=O)(=O)Nc2ccccc2OC)cc1NC(=O)CC1CC2CCC1C2 (stereo not drawn) | inconclusive: 29.1 µM [falling, single point] | –
CN(C)c1ccc(NC(=O)Nc2csc3ccccc23)cc1 | inconclusive: 7.31 µM [activator, partial curve, poor fit] | –
COc1ccc(N2CCN(C(=O)Cc3ccc(Br)cc3)CC2)cc1 | inconclusive: 18.4 µM [falling, partial curve, poor fit] | –
O=C(NC1CCCCC1)c1n[nH]c2c1CCCCC2 | inconclusive: 2.91 µM [activator, partial curve] | –
CCCCCCCC/C=C\CCCCCCCC(=O)NCCc1ccc(O)c(O)c1 | inconclusive: 29.1 µM [falling, single point] | –
O=C(c1cccs1)N1CCN(Cc2ccccc2)CC1 | – | inactive: 1.33%
Nc1ccccc1S(=O)(=O)Nc1cccc2cccnc12 | inconclusive: 18.4 µM [falling, single point] | –
O=C(Nc1ncccc1O)c1ccc(NS(=O)(=O)c2ccc3[nH]c(=O)[nH]c3c2)cc1 | – | inactive: 16.5%
Cc1cc(C(F)(F)F)c(C#N)c(SCC(=O)Nc2nc3ccccc3s2)n1 | inconclusive: 0.411 µM [activator, full curve] | –
COc1ccc(-c2nnc(SC(C)C#N)o2)cc1 (stereo not drawn) | inconclusive: 23.1 µM [activator, partial curve, poor fit] | –
O=C(Nc1cc(S(=O)(=O)Nc2ccccc2F)ccc1Cl)c1ccc(F)cc1F | – | inactive: -9.9%
CC1CCN(S(=O)(=O)c2ccc3ccccc3c2)CC1 | inconclusive: 9.2 µM [falling, partial curve, poor fit] | –
O=C(Nn1c(C2CCCCC2)nc2ccccc2c1=O)c1ccc(Cl)c([N+](=O)[O-])c1 | – | inactive: 6.69%
CCCCN(C)CCNC(=O)c1ccc(Cn2c(=O)[nH]c3cc(OC)c(OC)cc3c2=O)cc1 | – | inactive: 1.36% [at 9.27 µM]
CC(=O)c1c(C)[nH]c(C(=O)OCCOc2ccccc2)c1C | inconclusive: 32.6 µM [falling, single point] | –
CCOC(=O)c1[nH]c2ccc(OC)cc2c1NC(=S)N1CCN(c2ccccc2)CC1 | inconclusive: 18.4 µM [falling, partial curve, poor fit] | –
